Experimental data from publication PMC6694222.

By UniProt entry, the sequences of proteins in these tests, tags left out. Residues count along the entry.
UniProt P02545, residues 1-646: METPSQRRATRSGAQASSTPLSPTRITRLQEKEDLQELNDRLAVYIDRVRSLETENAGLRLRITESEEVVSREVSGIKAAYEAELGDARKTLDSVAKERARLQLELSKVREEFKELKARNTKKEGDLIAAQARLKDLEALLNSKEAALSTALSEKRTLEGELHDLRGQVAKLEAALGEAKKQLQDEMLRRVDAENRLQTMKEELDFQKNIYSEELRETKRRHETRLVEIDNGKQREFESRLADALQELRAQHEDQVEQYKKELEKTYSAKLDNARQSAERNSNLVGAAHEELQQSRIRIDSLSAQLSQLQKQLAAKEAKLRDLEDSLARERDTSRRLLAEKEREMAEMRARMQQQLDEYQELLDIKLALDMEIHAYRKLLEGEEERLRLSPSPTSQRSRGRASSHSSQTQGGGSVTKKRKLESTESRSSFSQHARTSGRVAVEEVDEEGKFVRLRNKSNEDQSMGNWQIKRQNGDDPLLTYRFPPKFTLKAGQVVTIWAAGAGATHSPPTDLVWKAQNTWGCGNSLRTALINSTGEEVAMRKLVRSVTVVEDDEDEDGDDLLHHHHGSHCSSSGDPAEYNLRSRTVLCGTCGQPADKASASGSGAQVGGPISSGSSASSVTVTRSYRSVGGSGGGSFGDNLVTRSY

Biological target: T1, mammalian STE20-like protein kinase 2 (MST2) (human (endogenous in HeLa)) (UniProt Q13188)
T1 sequence: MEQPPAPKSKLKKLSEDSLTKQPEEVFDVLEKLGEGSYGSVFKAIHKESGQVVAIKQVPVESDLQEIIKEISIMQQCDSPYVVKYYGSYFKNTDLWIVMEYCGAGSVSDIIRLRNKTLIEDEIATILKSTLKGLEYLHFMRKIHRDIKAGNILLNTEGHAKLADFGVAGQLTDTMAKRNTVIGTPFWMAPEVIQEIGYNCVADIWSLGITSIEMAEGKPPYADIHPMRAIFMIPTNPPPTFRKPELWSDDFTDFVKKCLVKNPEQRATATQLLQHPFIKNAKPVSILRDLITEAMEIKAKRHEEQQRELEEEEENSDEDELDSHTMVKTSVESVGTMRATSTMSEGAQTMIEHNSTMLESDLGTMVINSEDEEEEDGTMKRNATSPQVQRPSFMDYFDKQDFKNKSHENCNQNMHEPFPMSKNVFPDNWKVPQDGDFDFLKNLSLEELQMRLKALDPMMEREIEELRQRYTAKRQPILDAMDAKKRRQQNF
Experiment: affinity purification with mass spectrometry; MST2 antibody (ab52641) or rIgG with protein A Dynabeads, 10 mg HeLa lysate (1% NP-40, 150 mM NaCl, 20 mM HEPES, 0.5 mM EDTA), 3 h at 4 C, low pH glycine elution, LC-MS/MS

## Lamin A/C (from UniProt P02545 1-646)
  binding: binds

No constants are given. Whether binding was seen depends on the method and setting. In cells and extracts the contact can be indirect. These calls come from enrichment with a bait or labelling near it, and not all partners need be listed.
